Results on two sequences are retold here after US20060277620.

For some of these results: Results from cells or extracts need not show a direct contact. Protein sequences can lack the tags named with them.

The subject of series [1] is T1, GAD11 (GAL4 AD fusion clone) (Aspergillus niger).
T1 sequence: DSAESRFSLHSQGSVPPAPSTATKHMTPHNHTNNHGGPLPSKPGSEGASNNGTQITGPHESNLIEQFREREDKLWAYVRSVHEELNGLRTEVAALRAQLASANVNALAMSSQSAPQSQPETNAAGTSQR
Put plainly: one hybrid. The settings on record: growth on SD/-Leu/-His with 30 mM 3-AT; protein in a lysate after overexpression; variant of BREF51.

Series [2] has as its system T2, GAD1 (GAL4 AD fusion clone) (Aspergillus niger).
T2 sequence: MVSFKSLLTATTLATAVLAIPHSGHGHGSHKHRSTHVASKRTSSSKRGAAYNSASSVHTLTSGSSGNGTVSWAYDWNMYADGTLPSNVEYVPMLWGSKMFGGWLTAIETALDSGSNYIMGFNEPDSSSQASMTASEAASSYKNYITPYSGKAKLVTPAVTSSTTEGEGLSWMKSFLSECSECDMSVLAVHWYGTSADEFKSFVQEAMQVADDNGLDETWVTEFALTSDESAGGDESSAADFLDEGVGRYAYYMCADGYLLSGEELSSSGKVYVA
Description: one hybrid. The following applies: growth on SD/-Leu/-His with 30 mM 3-AT; protein in a lysate after overexpression; variant of BREF51.

Series [3] deals with T1, GAD11 (GAL4 AD fusion clone) (Aspergillus niger). Put plainly: EMSA. The following applies: larger shift than GAD1; poly(dI-dC); protein in a lysate after overexpression; label: 32P. A general note: A gel shift assay detects complexes by their altered migration in electrophoresis.
In series [4] the test system is T2, GAD1 (GAL4 AD fusion clone) (Aspergillus niger). Put plainly: EMSA. The settings on record: shift similar to A. niger total extract; poly(dI-dC); protein in a lysate after overexpression; label: 32P.

In the case of “ACTAGTCACAAGTTACGAGTTGTGTACATAACATCATTAGTCATGAAGATC (double strand) [BREF51 three tandem copies in pHISi-1]”, the “activity on this sequence” value in series [1] and in series [2] was “active” throughout.
Take “ACTAGTCACAAGTTACGAGTTGTGTACATAACATCATTAGTCATGAAGATC (double strand) [BREF51]”: the binding result in series [3] and in series [4] was “binds” each time.
